The record followed here is PubChem BioAssay AID248 (DTP/NCI, 2004).

The list does not hold the whole screen: it is rich in T/C values a quarter to a half above the control, in often repeated tests (any T/C) and in doses without a T/C. Other doses and runs of a compound stand elsewhere. T/C is the treated group as % of the vehicle group. Some entries give survivors of the animals treated and no T/C: the source holds a T/C of zero for them, seemingly a mark for toxic or unscored doses. Some survivor counts are full or nearly so, which does not show that the dose was tolerated: survival well below the control is almost never listed, so the zero probably covers shortened survival too. Counts of survivors are from the toxicity check (mostly the fifth day) where no day follows; animals may have died later. Schedules are NCI's codes, read here as Q, the interval in days (D) or hours (H), X, the number of doses. Some entries hold several experiments; the values are given in rising order. Some molecules as drawn cover several salts, stereoisomers or complexes of the source; a dose is that of the sample tested. For survival time, the PubChem record calls one and a half times the control and up active, and a quarter to a half above the control has no call in these data; cut-offs in other NCI protocols can differ. Some T/C values are followed by the survivors on the day toxicity was checked, most often the fifth; without a count, all were alive then.

The test system of the experiment is L1210 leukemia ip in BDF1 mice, survival T/C. Description: NCI In Vivo Anticancer Drug Screen. Data for tumor model L1210 Leukemia (intraperitoneal) in B6D2F1 (BDF1) mice. The conditions noted are these: T/C endpoint: mean survival time, higher T/C = longer survival.
Where [1] appears, read: dose: 200.0 mg/kg/injection, schedule: Q01DX009 (ip), vehicle: saline with Tween-80.
The mark [2] stands for this setting: dose: 400.0 mg/kg/injection, schedule: Q01DX009 (ip), vehicle: saline with Tween-80.
[3] abbreviates: dose: 400.0 mg/kg/injection, schedule: Q04DX003 (ip), vehicle: Klucel (hydroxypropylcellulose) (HPC).
Where [4] appears, read: dose: 400.0 mg/kg/injection, schedule: Q04DX003 (ip), vehicle: saline.
Where [5] appears, read: dose: 400.0 mg/kg/injection, schedule: Q01DX009 (ip), vehicle: Klucel (hydroxypropylcellulose) (HPC).
Where [6] appears, read: dose: 50.0 mg/kg/injection, schedule: Q04DX002 (ip), vehicle: Klucel (hydroxypropylcellulose) (HPC).
Setting [7] is: dose: 100.0 mg/kg/injection, schedule: Q04DX002 (ip), vehicle: Klucel (hydroxypropylcellulose) (HPC).
Where [8] appears, read: dose: 200.0 mg/kg/injection, schedule: Q04DX002 (ip), vehicle: Klucel (hydroxypropylcellulose) (HPC).

In the case of `Cc1c(CNc2ccc(C(=O)NC(CC(=O)O)CC(=O)O)cc2)ccc2nc(N)nc(N)c12`, the T/C is 134 % of control (dose: 0.3 mg/kg/injection, schedule: Q01DX009 (ip), vehicle: saline); 130 % of control (dose: 0.4 mg/kg/injection, schedule: Q01DX009 (ip), vehicle: saline); 132 % of control (dose: 2.5 mg/kg/injection, schedule: Q01DX001 (ip), vehicle: other); 126 % of control (dose: 2.5 mg/kg/injection, schedule: Q01DX001 (ip), vehicle: saline); 143 % of control (dose: 5.0 mg/kg/injection, schedule: Q01DX001 (ip), vehicle: other); 140 % of control (dose: 5.0 mg/kg/injection, schedule: Q01DX001 (ip), vehicle: saline). Moreover, the T/C is 134 % of control (dose: 5.0 mg/kg/injection, schedule: Q04DX003 (ip), vehicle: saline); 144 % of control (dose: 9.5 mg/kg/injection, schedule: Q01DX001 (ip), vehicle: other); 146 % of control [4 of 6 alive] (dose: 19.0 mg/kg/injection, schedule: Q01DX001 (ip), vehicle: other); 145 % of control (dose: 40.0 mg/kg/injection, schedule: Q01DX001 (ip), vehicle: saline). The survivor count (dose: 2.5 mg/kg/injection, schedule: Q01DX009 (ip), vehicle: saline) is 4 of 6 and 6 of 6; the survivor count (dose: 5.0 mg/kg/injection, schedule: Q01DX009 (ip), vehicle: saline) was 5 of 6 and 6 of 6; the survivor count (dose: 6.7 mg/kg/injection, schedule: Q01DX009 (ip), vehicle: other) is given as 6 of 6; the survivor count (dose: 10.0 mg/kg/injection, schedule: Q01DX009 (ip), vehicle: other) was 5 of 6; the survivor count (dose: 15.0 mg/kg/injection, schedule: Q01DX009 (ip), vehicle: other) was 6 of 6; the survivor count (dose: 20.0 mg/kg/injection, schedule: Q04DX003 (ip), vehicle: saline) is listed as 6 of 6. For the same compound, the survivor count is recorded as 3 of 6 (dose: 38.0 mg/kg/injection, schedule: Q01DX001 (ip), vehicle: other); 5 of 6 (dose: 40.0 mg/kg/injection, schedule: Q04DX003 (ip), vehicle: saline); 5 of 6 (dose: 75.0 mg/kg/injection, schedule: Q01DX001 (ip), vehicle: other); 3 of 6 (dose: 150.0 mg/kg/injection, schedule: Q01DX001 (ip), vehicle: other); 3 of 6 (dose: 300.0 mg/kg/injection, schedule: Q01DX001 (ip), vehicle: other).

Consider `N#CCN(CC#N)CC#N`, for which, for the setting “dose: 12.5 mg/kg/injection, schedule: Q04DX003 (ip), vehicle: saline with Tween-80”, the survivor count was 6 of 6.

On to `CCCCCCCC[Se](=O)O`, for which the survivor count reads like this: (dose: 40.0 mg/kg/injection, schedule: Q01DX001 (ip), vehicle: carboxymethylcellulose (CMC)) 0 of 4; (dose: 50.0 mg/kg/injection, schedule: Q01DX001 (ip), vehicle: carboxymethylcellulose (CMC)) 0 of 4; (dose: 80.0 mg/kg/injection, schedule: Q01DX001 (ip), vehicle: carboxymethylcellulose (CMC)) 0 of 4; (dose: 100.0 mg/kg/injection, schedule: Q01DX001 (ip), vehicle: carboxymethylcellulose (CMC)) 0 of 4; (dose: 200.0 mg/kg/injection, schedule: Q01DX001 (ip), vehicle: carboxymethylcellulose (CMC)) 0 of 4; (dose: 400.0 mg/kg/injection, schedule: Q01DX001 (ip), vehicle: carboxymethylcellulose (CMC)) 0 of 4.

Take `CCCCNc1nnc(N)s1`: the survivor count (dose: 400.0 mg/kg/injection, schedule: Q04DX002 (ip), vehicle: saline with Tween-80) is recorded as 0 of 3.

For the compound `OCc1cc(Cl)cc(Cl)c1O`, the survivor count was 2 of 6 under setting [1] and 2 of 6 under setting [2].

As to `O=S(=O)(O)CCN1CCOCC1`, the survivor count (dose: 200.0 mg/kg/injection, schedule: Q01DX009 (ip), vehicle: Klucel (hydroxypropylcellulose) (HPC)) is listed as 3 of 6.

As to `O=Cc1[nH]c(=S)[nH]c(=O)c1Cc1cccc2ccccc12`, the survivor count under setting [2] is reported as 3 of 6.

For `CCCCCCCCc1ccc(NC(N)=S)cc1`, the survivor count (dose: 6.25 mg/kg/injection, schedule: Q01DX009 (ip), vehicle: saline with Tween-80) was 3 of 3; the survivor count (dose: 25.0 mg/kg/injection, schedule: Q01DX009 (ip), vehicle: saline with Tween-80) is 1 of 3; the survivor count (dose: 50.0 mg/kg/injection, schedule: Q01DX009 (ip), vehicle: saline) is listed as 0 of 3; the survivor count (dose: 100.0 mg/kg/injection, schedule: Q01DX009 (ip), vehicle: saline) was 0 of 3; the survivor count (dose: 200.0 mg/kg/injection, schedule: Q01DX009 (ip), vehicle: saline) is on record as 0 of 3.

For the compound `CC1(C)C2CCC(CN=C(N)CSS(=O)(=O)O)C1C2` (stereo not given), under “dose: 12.5 mg/kg/injection, schedule: Q04DX002 (ip), vehicle: saline with Tween-80”, the T/C is 127 % of control. Moreover, the survivor count (dose: 25.0 mg/kg/injection, schedule: Q04DX002 (ip), vehicle: saline with Tween-80) was 1 of 3.

For `CC(CN(C)C)C(=O)c1ccccc1` (stereo not given), the survivor count runs as follows: (dose: 200.0 mg/kg/injection, schedule: Q04DX003 (ip), vehicle: Klucel (hydroxypropylcellulose) (HPC)) 3 of 6; (dose: 200.0 mg/kg/injection, schedule: Q04DX003 (ip), vehicle: saline) 2 of 6; under setting [3], 0 of 6; under setting [4], 0 of 6.

In the case of `CN(C)c1ccc(C(=C2C=CC(=[N+](C)C)C=C2)c2ccccc2Cl)cc1`, the survivor count runs as follows: (dose: 200.0 mg/kg/injection, schedule: Q01DX001 (ip), vehicle: saline) 0 of 4; (dose: 400.0 mg/kg/injection, schedule: Q01DX001 (ip), vehicle: saline) 0 of 4.

With `O=C(/C=C/c1ccccc1)NC(=S)Nc1ncccn1`, the survivor count (dose: 400.0 mg/kg/injection, schedule: Q04DX003 (ip), vehicle: carboxymethylcellulose (CMC)) is given as 3 of 6.

As to `CC(=O)Nc1cc2cc(Br)ccc2oc1=O`, under setting [5], the survivor count is 6 of 6.

On to `O=C(COc1ccc(Cl)c(Cl)c1)Nc1ccc[n+](Cc2ccc(S(=O)(=O)F)cc2Cl)c1`, for which the survivor count runs as follows: under setting [1], 2 of 6; under setting [2], 0 of 6.

With `Cc1cc[c]([Hg][I])cc1`, the survivor count is given as 4 of 6 (dose: 25.0 mg/kg/injection, schedule: Q01DX009 (ip), vehicle: Klucel (hydroxypropylcellulose) (HPC)); 1 of 3 under setting [6]; 0 of 3 under setting [7]; 0 of 3 under setting [8]; 0 of 3 (dose: 400.0 mg/kg/injection, schedule: Q04DX002 (ip), vehicle: Klucel (hydroxypropylcellulose) (HPC)).

For `O=C(/C=C\c1ccc(O)cc1)c1ccccc1`, under setting [3], the survivor count is recorded as 6 of 6.

In the case of `CC(C)CC(NC(=O)C(Cc1ccc(OCc2ccccc2)cc1)NC=O)C(=O)O` (stereo not given), the survivor count under setting [2] is recorded as 2 of 6.

As for `Cc1nc2c(o1)CCCC2`, the survivor count (dose: 400.0 mg/kg/injection, schedule: Q04DX002 (ip), vehicle: carboxymethylcellulose (CMC)) is recorded as 3 of 3.

With `COc1ccc2c(O)c(Oc3ccccc3)c(=O)oc2c1`, the survivor count under setting [4] is given as 1 of 3.

With `NC(=Nc1ccccc1)Nc1ccccc1`, the survivor count under setting [6] is on record as 0 of 3; the survivor count (dose: 55.0 mg/kg/injection, schedule: Q01DX009 (ip), vehicle: saline) was 0 of 3; the survivor count (dose: 80.0 mg/kg/injection, schedule: Q01DX009 (ip), vehicle: saline) is 0 of 3; the survivor count under setting [7] was 0 of 3; the survivor count under setting [8] was 0 of 3.

Turning to `CC(Oc1cc(Cl)c(Cl)cc1Cl)C(=O)ON(C)C` (stereo not given), under setting [5], the survivor count was 0 of 6.
